Source: PubChem BioAssay AID743454 (Peter MacCallum Cancer Centre, 2014)
The whole screen tested about 18,000 reagents; shown is a random part of them. 450 of all reagents (2.5%) count as active. 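Single biological run; no consistent viability z cut-off exists, so the class columns, not z-scores, define the calls.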 Unmarked entries are inactive. No sequences are given here.

- Aim: 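Genes whose loss kills vorinostat-resistant colon cancer cells under vorinostat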 (primary screen)
- System: human HCT116-VR colon cancer cells, selected for vorinostat resistance
- Knock-down reagent: siRNA pool against human genes, 40 nM siRNA pool
- Duration: vorinostat for 24 h, read-out about 72 h after transfection
- Challenge: vorinostat at 2.5 µM final
- Read-out: 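Cell viability by CellTiter-Fluor and caspase 3/7 activity by luminescence, each scaled to mock wells per plate, duplicates averaged, then robust z-scored over all plates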
- Scale: viability robust z-score: higher = more viable cells than screen typical; caspase robust z-score: higher = more caspase 3/7 activity than screen typical
- Active means: 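a knock-down is a hit when classed RV1 or RV2 for lowered viability, or CA1 or CA2 for caspase activation; those lethal without drug were dropped; hits were retested singly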

viability hit class	caspase hit class	viability robust z-score	caspase robust z-score	gene
no change	no change	-0.48	1.88	HERC4
no change	no change	-0.47	2.5	UBE2V2
no change	no change	0.08	-0.86	CNTNAP4
no change	no change	-1.05	0.62	TMEM201
no change	no change	-0.62	4.07	KCNJ9
no change	no change	0.5	-0.47	TNFRSF10B
no change	no change	0.22	0.3	FBXO3
RV2 (reduced viability) (active)	no change	-3.13	3.44	FGFRL1
no change	no change	-0.03	2.44	THBS1
no change	no change	0.3	-0.7	ZNF30
no change	no change	-0.75	-0.46	COL3A1
no change	no change	-0.2	1.82	SLC17A6
no change	no change	-1.64	2.72	PIGX
no change	no change	-0.17	1.78	DMPK
no change	no change	-0.93	3.34	NFATC4
no change	no change	0.07	0.28	STRADB
no change	no change	-0.29	1.29	EGLN1
no change	no change	-1.53	-0.89	ZBED8
no change	no change	-1.88	0.84	POLR3D
no change	no change	-0.24	-0.8	MEGF8
no change	no change	-0.25	-0.18	OR10J1
no change	no change	-0.99	-0.46	ATP8A1
no change	no change	0.69	-0.98	NOSIP
no change	no change	-1.67	1.38	SERPINI1
no change	no change	0	-0.76	CRMA
no change	no change	-0.21	0.08	CDC42SE2
no change	no change	0.04	1.08	GCG
no change	no change	1.4	-0.76	NDUFB11
no change	no change	1.17	0.3	LHX2
no change	no change	-0.74	0.01	CST5
no change	no change	-2.63	0.34	MAGEA2
no change	no change	1.08	1.04	HES6
no change	no change	0.76	-0.81	SNCG
no change	no change	1.72	-0.4	TSPY1
no change	no change	-1.02	2.52	MTG2
no change	no change	-0.86	2.67	ERICH3
no change	no change	-1.1	0.85	WWP2
no change	no change	0.46	1.75	TENT5A
no change	no change	0.42	0.45	DHX29
no change	no change	-0.12	-0.72	ZFAND4
no change	no change	-2.14	4.15	BORCS8-MEF2B
no change	no change	-0.82	-0.9	HJURP
no change	no change	-0.8	3.1	ZFAND2B
no change	no change	2.06	0.68	TSKU
no change	no change	-3.7	0.08	RPL15
no change	no change	1.39	-0.21	KRTAP9-2
no change	no change	-0.35	-0.87	NDUFB3
no change	no change	-1.77	0.94	NME3
no change	no change	-0.82	3.08	DRC3
no change	no change	-1.72	-0.12	KLHL3
no change	no change	0.02	-0.2	ZP4
no change	no change	0.11	-0.56	UGGT1
no change	no change	-1.14	0.54	GCNT3
no change	no change	-0.56	1.65	ASAP1
no change	no change	-0.4	1.46	MRPL58
no change	no change	0.38	-0.89	IREB2
no change	no change	1.35	-0.48	AP1G1

In a second layout: 4 of the entries above.
| viability hit class | caspase hit class | viability robust z-score | caspase robust z-score | gene |
| --- | --- | --- | --- | --- |
| no change | no change | 0.08 | -0.86 | CNTNAP4 |
| no change | no change | -1.05 | 0.62 | TMEM201 |
| no change | no change | -0.62 | 4.07 | KCNJ9 |
| no change | no change | 0.5 | -0.47 | TNFRSF10B |
